Patent publication US9464120B2, “Compositions for treatment of celiac disease” (ImmusanT, Inc., priority 2008, dated 2016)
Some results were stated once for a whole list of compounds, not compound by compound.

System: gluten peptide-specific T cells in PBMC from HLA-DQ2+ celiac disease donors
Assay: IFNγ ELISpot of PBMC collected on day 6 after oral gluten challenge
Assay type: cell-based, human
Details: wheat, rye and barley second round libraries

| Substance | number of donors in whom peptide was dominant (at least 70% of response of most active peptide in library) | proportion of donors in whom peptide was dominant |
| --- | --- | --- |
| GQGQSGYYPTSPQQSG (W29) | at least 1 donor | – |
| PFPQPQQPIPV (W04) [SEQ ID NO:48] | at least 1 donor | more than 10% |
| PGQGQSGYYPTSPQQS (W24) | at least 1 donor | – |
| QGQPGYYPTSPQQIGQ (W22) | at least 1 donor | – |
| QGQQGYYPISPQQSGQ (W21) | at least 1 donor | – |
| QPFPQPQQPFPW (W03, B01) [SEQ ID NO:47] | at least 1 donor | more than 10% |
| QYEVIRSLVRTLPNM (QYEVIRSLVLRTLPNM; W36) | at least 1 donor | – |
| R11-E7: secalin peptide encompassed in QPFPQQPEQIIPQQ (R11-E7) | at least 1 donor | – |
| SEQ ID NO:57: second round gluten library peptide; sequence not printed in text (PFPQPEQPIPV; W04-E7) | at least 1 donor | more than 10% |
| SEQ ID NO:58: second round gluten library peptide; sequence not printed in text (QPFPQPELPFPQ; W06-E7) | at least 1 donor | more than 10% |
| SEQ ID NO:59: second round gluten library peptide; sequence not printed in text (LPYPQPQLPYPQ; W01) | at least 1 donor | more than 10% |
| SEQ ID NO:61: second round gluten library peptide; sequence not printed in text (QPFPQPQLPYPQ; W02) | at least 1 donor | more than 10% |
| SEQ ID NO:63: second round gluten library peptide; sequence not printed in text (QPFPQPQQPFSQ; W05) | at least 1 donor | more than 10% |
| SEQ ID NO:64: second round gluten library peptide; sequence not printed in text (QPFPQPEQPFSQ; W05-E7) | at least 1 donor | more than 10% |
| SEQ ID NO:65: second round gluten library peptide; sequence not printed in text (QPFPQPQQPFCQ; W07) | at least 1 donor | – |
| SEQ ID NO:66: second round gluten library peptide; sequence not printed in text (QPFPQPEQPFCQ; W07-E7) | at least 1 donor | – |
| SEQ ID NO:67: second round gluten library peptide; sequence not printed in text (QPFPQPQLPYSQ) | at least 1 donor | – |
| SEQ ID NO:68: second round gluten library peptide; sequence not printed in text (QPFPQPELPYSQ; W08-E7) | at least 1 donor | – |
| SEQ ID NO:75: second round gluten library peptide; sequence not printed in text (LQQQCSPVAMPQRLAR; W12) | at least 1 donor | – |
| SEQ ID NO:76: second round gluten library peptide; sequence not printed in text (QPFPQPQLPYLQ; W13) | at least 1 donor | – |
| SEQ ID NO:77: second round gluten library peptide; sequence not printed in text (QPFPQPELPYLQ; W13-E7) | at least 1 donor | – |

| Substance | number of donors in whom peptide was dominant (at least 70% of response of most active peptide in library) | proportion of donors in whom peptide was dominant |
| --- | --- | --- |
| SEQ ID NO:78: second round gluten library peptide; sequence not printed in text (QQFIQPQQPFPQ; W14) | at least 1 donor | – |
| SEQ ID NO:79: second round gluten library peptide; sequence not printed in text (QQFIQPEQPFPQ; W14-E7) | at least 1 donor | – |
| SEQ ID NO:80: second round gluten library peptide; sequence not printed in text (LERPWQQQPLPP; W15) | at least 1 donor | more than 10% |
| SEQ ID NO:81: second round gluten library peptide; sequence not printed in text (LERPWQEQPLPP; W15-E7) | at least 1 donor | more than 10% |
| SEQ ID NO:89: second round gluten library peptide; sequence not printed in text (PIPQQPQQPFPL; W20) | at least 1 donor | – |
| SEQ ID NO:90: second round gluten library peptide; sequence not printed in text (PIPQQPEQPFPL; W20-E7) | at least 1 donor | – |
| SEQ ID NO:102: second round gluten library peptide; sequence not printed in text (PQQTFPQQPQLP; W28) | at least 1 donor | – |
| SEQ ID NO:103: second round gluten library peptide; sequence not printed in text (PQQTFPEQPQLP; W28-E7) | at least 1 donor | – |
| SEQ ID NO:117: second round gluten library peptide; sequence not printed in text (QVDPSGQVQWPQ; W37) | at least 1 donor | – |
| SEQ ID NO:118: second round gluten library peptide; sequence not printed in text (QVDPSGEVQWPQ; W37-E7) | at least 1 donor | – |
| SEQ ID NO:119: second round gluten library peptide; sequence not printed in text (QPFPQPQQPFPL; B02) | at least 1 donor | more than 10% |
| SEQ ID NO:121: second round gluten library peptide; sequence not printed in text (QPFPQPQQPIPY; B03) | at least 1 donor | more than 10% |
| SEQ ID NO:122: second round gluten library peptide; sequence not printed in text (QPFPQPEQPIPY; B03-E7) | at least 1 donor | more than 10% |
| SEQ ID NO:123: second round gluten library peptide; sequence not printed in text (PQQPVPQQPQPY; B04) | at least 1 donor | more than 10% |
| SEQ ID NO:124: second round gluten library peptide; sequence not printed in text (PQQPVPEQPQPY; B04-E7) | at least 1 donor | more than 10% |
| SEQ ID NO:125: second round gluten library peptide; sequence not printed in text (PQPFPQQPIPQQPQPY; B05) | at least 1 donor | more than 10% |
| SEQ ID NO:126: second round gluten library peptide; sequence not printed in text (QQPIPQQPQPY; B06) | at least 1 donor | more than 10% |
| SEQ ID NO:128: second round gluten library peptide; sequence not printed in text (QQFPQPQQPFPQ; B07) | at least 1 donor | more than 10% |
| SEQ ID NO:129: second round gluten library peptide; sequence not printed in text (QQFPQPEQPFPQ; B07-E7) | at least 1 donor | more than 10% |
| SEQ ID NO:130: second round gluten library peptide; sequence not printed in text (PQQPIPQQPQPYPQQP; B08) | at least 1 donor | more than 10% |
| SEQ ID NO:131: second round gluten library peptide; sequence not printed in text (QQPFPQQPFPQQPQPY; B09) | at least 1 donor | more than 10% |
